We go through 52 compounds from PubChem BioAssay AID1458 (National Center for Advancing Translational Sciences (NCATS), 2008).

Screen size: about 210,000 compounds; about 5,900 (2.8%) were called active. Inconclusive results (about 5%) are left out. The call rests on the fitted dose curve; in most records, active means well fitted activation curve with a large enough effect; inconclusive means small, poorly fitted or top-dose-only effect; inactive means no such curve, though single readings can be large or run the other way. The list shows a part of the results, in another mix than the full data. The source gives no active or inactive call for entries shown without one.
Potency means the concentration at half of the fitted maximal effect.

The nature of this experiment: qHTS Assay for Enhancers of SMN2 Splice Variant Expression. Further: nearly all actives have a fitted effect of over 55% in size. On activity change, positive = activation: % of control where 0% means no effect. The settings on record: HEK293 SMN2-luciferase splicing reporter, luminescence, 30-36 h; activity change, positive = activation: at 46.1 µM (top of the series) unless noted. The procedure, abridged:
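HEK293 cells carry an SMN2 minigene-luciferase reporter in which exon 7 inclusion puts luciferase in frame. Cells were seeded at 2000 cells/well, attached for 10-12 hours, then exposed to compounds for 30-36 hours at 37C before ONE-Glo luminescence.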
In general terms: In qHTS, concentration-response curves come from the screen itself.
With `Cc1onc(-c2c(Cl)cccc2Cl)c1C(=O)Nc1ccc2c(c1)OCO2`, the activity change, positive = activation was 21.6%.
Same read-out and setting: then `CCc1ccc(C(=O)/C=C2\Sc3ccccc3NC2=O)cc1`, with -33.5%; and `COc1ccc(OC)c(NC(=O)c2cc3ccccc3o2)c1`, with 86.6%.
On to `CC(Sc1nc2nn(-c3ccccc3)c(=O)c-2c2n1CCCCC2)C(N)=O` (configuration not stated), for which the activity change, positive = activation was found to be 39.7%.
The same measure, in the same setting: then `COc1ccccc1NC(=O)NCC(=O)Nc1ccc(F)c(F)c1`, with 30.4%; and `Cc1csc(NC(=O)c2cc3c(C)nn(Cc4ccccc4Cl)c3s2)n1`, with inactive: -46.9%.
As to `Cc1ccc(N/C=C(/C#N)c2ccsc2)cc1C`, the Potency is active: 12.6 µM.
Regarding `CCOC(=O)N1CCN(S(=O)(=O)c2ccc3c(c2)SCC(=O)N3)CC1`, the “activity change, positive = activation” value was inactive: -40.4%.
For the compound `c1ccc(Cc2nc(-c3ccccn3)no2)cc1`, the Potency was active: 25.1 µM.
`O=C(c1cc([N+](=O)[O-])cc([N+](=O)[O-])c1)N1CCOCC1`: the activity change, positive = activation stood at 31.4%.
Consider `Cc1ccc(C(=O)Nc2nnc(C3CCCCC3)s2)o1`, for which the Potency is active: 11.2 µM.
Take `COc1ccccc1NC(=O)Cc1noc(CN(C)Cc2cccs2)n1`: the activity change, positive = activation was 57.5%.
In the case of `Cc1ccc2c(CC(=O)Nc3c(C(=O)Nc4cccc(Cl)c4)oc4ccccc34)coc2c1C`, the activity change, positive = activation amounted to 32.9%.
Still for that read-out and setting: then `COc1ccc(C2C(=O)c3ccccc3C2=O)cc1OC`, with 65.4%.
Take `C=CCNC(=O)c1ccccc1NS(=O)(=O)c1ccccc1`: the activity change, positive = activation is 35.7%.
As to `CC(Sc1nncn1C)C(=O)Nc1nnc(-c2ccccc2)s1` (configuration not stated), the Potency is active: 14.1 µM.
The same measure, in the same setting: as for `CSc1ccccc1NC(=O)c1cc2ncc(Br)cn2n1`, the figure is active: 3.16 µM.
Regarding `O=C(Nc1ccc2oc(-c3ccc4ccccc4c3)nc2c1)c1ccc2c(c1)OCCO2`, the “activity change, positive = activation” value was inactive: -35.4%.
Still for that read-out and setting: as for `O=C(CN1N=C(c2ccccc2)CCC1=O)NCc1ccccc1`, the figure is -2.38%.
Same read-out and setting: then `C=CCn1c(SCC(=O)c2cccs2)nc2sc(CC)cc2c1=O`, with inactive: -42.6%; and `CCC(=O)c1ccc(CCCCCC(=O)O)s1`, with 35.6%.
`c1ccc2cc3c(NCCN4CCOCC4)ccnc3cc2c1`: the activity change, positive = activation was -73%.
As to `Cc1ccc(-n2nc(-c3ccc(N)cc3)cc2N)cc1`, the Potency was active: 11.2 µM.
For the compound `Brc1ccc(-c2ccc(CNCCSc3nnnn3-c3ccccc3)o2)cc1`, the “activity change, positive = activation” value is inactive: -35.1%.
Regarding `CCOC(=O)N1CCC(NC(=O)c2cc(C(=O)Nc3cccc(C(F)(F)F)c3)ccc2CO)CC1`, the “activity change, positive = activation” value was inactive: -51.5%.
In the case of `Cc1cc(NC(=O)c2cccnc2)cc(-c2nc3cc(Cl)ccc3o2)c1O`, the activity change, positive = activation came out at 34.9%.
With `CCOCCCNC(=O)c1ccc2c(c1)OCO2`, the Potency is active: 14.1 µM.
In the case of `Cc1cc(-c2ccc(Cl)cc2)oc(=O)c1NC(=O)c1ccccc1`, the “activity change, positive = activation” value was inactive: -32.3%.
`Cn1c(=O)c(=O)n(C)c2cc(S(=O)(=O)N3CCN(c4ccccc4F)CC3)ccc21`: the activity change, positive = activation was -50.8%.
As for `CC1SC(=Nc2ccccc2)N(S(=O)(=O)c2ccccc2)C1=O` (configuration not stated), the activity change, positive = activation is -1.84%.
Same read-out and setting: as for `COCCn1cnc2c1c(=O)n(CC(=O)OCC(=O)NCCCc1ccccc1)c(=O)n2Cc1ccccc1`, the figure is -35%; as for `[O-]/C(=C(\C(=S)Nc1ccc(SC(F)F)cc1)[n+]1ccccc1)c1ccc(Cl)cc1Cl`, inactive: -77.8%; as for `CCN(c1ccccc1)S(=O)(=O)c1cc(C(=O)Nc2ccc(Br)cc2)ccc1F`, -59.7%.
The same measure, in the same setting: then `Cc1ccccc1C(=O)Nc1nnc(-c2ccco2)o1`, with 68.4%; and `COCCCNC(=O)CC(NS(=O)(=O)c1ccc(Cl)cc1)c1ccco1` (configuration not stated), with 30.1%; and `CCCS(=O)(=O)N1CCCC(C(=O)NCC(OC)OC)C1` (configuration not stated), with inactive: -37.4%.
As to `O=C(NC12CC3CC(CC(C3)C1)C2)c1ccc(-c2ccccc2Cl)o1`, the “activity change, positive = activation” value was inactive: 7.98%.
As to `CCOc1ccc2nc(N3CCCCCC3)sc2c1`, the Potency was active: 7.94 µM.
As for `N#Cc1sc2nc(-c3cccs3)cc(-c3ccc(F)cc3)c2c1N`, the activity change, positive = activation was -7.37%.
Still for that read-out and setting: then `Cc1ccccc1N1C(N)=NC(N)=NC1(C)C`, with 51.1%; and `O=C(CSc1ncnc2ccccc12)c1ccco1`, with 31.2%; and `CCCCN(CCCC)C(=O)CSc1nnc(-c2cc(OC)c(OC)c(OC)c2)o1`, with inactive: -53.5%.
On the same count and under the same terms, then `O=C(NNC1CC(=O)N(c2ccc(Br)cc2)C1=O)c1cccnc1` (configuration not stated), with -39.7%.
`CCN(CC)c1ccc(C(=O)OCC(=O)N(C(C)C)C(C)C)cc1`: the activity change, positive = activation is -31.2%.
`Cc1cccc(-n2ncc3c(NCCCn4ccnc4)ncnc32)c1`: the Potency was active: 7.08 µM.
The same measure, in the same setting: then `O=C(CSc1nnc2ccccn12)c1ccc2c(c1)OCCO2`, with active: 11.2 µM; and `Cc1ccc(NC(=O)NCc2ccc3[nH]c(C)cc3c2)cc1`, with active: 22.4 µM.
As to `CCCCc1c(O)nc(SCC(=O)N2CCCCC2)n(-c2ccccc2C)c1=O`, the activity change, positive = activation amounted to 31%.
The same measure, in the same setting: as for `O=C(Nc1ccccc1Cl)Nc1cccnc1Cl`, the figure is inactive: -71.8%; as for `COc1ccc2c(c1)CCc1cc(C(=O)N3CCN(c4ccc(N5CCOCC5)nn4)CC3)sc1-2`, inactive: -53.2%; as for `CCCCCCCCCC(=O)N/N=C/c1ccc(C)s1`, 48.3%.
Regarding `COc1ccc(C)cc1S(=O)(=O)N(CC(=O)O)c1ccccc1`, the activity change, positive = activation amounted to 32%.
